Measurements reported in paper PMC12171682, “Saarvienin A—A Novel Glycopeptide with Potent Activity against Drug‐Resistant Bacteria” (Angewandte Chemie (International Ed. in English), 2025).

System: E. faecium DSM 17050 (VRE, vanA positive)
Conditions: broth microdilution, cation-adjusted Mueller-Hinton Broth II, ~4 × 10⁵ CFU/mL, 37 °C, 24 h; mean of three independent biological replicates, each in technical triplicate

## CN[C@H](CC(C)C)C(=O)N[C@H]1C(=O)N[C@@H](CC(N)=O)C(=O)N[C@H]2C(=O)N[C@H]3C(=O)N[C@H](C(=O)N[C@H](C(=O)O)c4cc(O)cc(O)c4-c4cc3ccc4O)[C@H](O)c3ccc(c(Cl)c3)Oc3cc2cc(c3O[C@@H]2O[C@H](CO)[C@@H](O)[C@H](O)[C@H]2O[C@H]2C[C@](C)(N)[C@H](O)[C@H](C)O2)Oc2ccc(cc2Cl)[C@H]1O [Vancomycin, vancomycin]
  MIC, E. faecium DSM 17050 (VRE, vanA positive): >64 µg/mL
